Assay results: PubChem BioAssay AID1347423 (Functional Genomics Laboratory (NCATS/FGL), 2020)
The campaign covered roughly 52,000 sequences. About 210 (0.4%) were called active.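 The calls were made as follows: active = gene whose silencing raises cell survival under the drug, median off-target-corrected z-score across its silencing RNAs 2 or more; inactive = the rest.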 This is one part of the list.

assay: Resistance to Poly (ADP-Ribose) Polymerase inhibitor: Gene Identification via Genome-wide siRNA Screen; settings: mouse BRCA2 R2336H ES cells, olaparib, CellTiter-Glo viability; stronger effect = higher value
Outline: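 Mouse BRCA2 R2336H ES cells were reverse-transfected with siRNA (20 nM final), treated at 48 h with 500 nM olaparib, and read by CellTiter-Glo after 72 h. Scores: MAD-based z per siRNA, median per gene, seed off-target correction.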

Q: With GGCUGGUGUGACAUUGCCUTT against Pglyrp3 as the sequence, how does the z-score read?
A: inactive: 0.129

Q: For UGGAGGAUUACUCUUCUGCTT against LOC434484, which z-score is on record?
A: inactive: 0.737

Q: Which z-score does the source give for “CCCUAAUGAAUGGUCUCAUTT against B230382K22Rik” here?
A: inactive: -0.616

Q: Which z-score does the source give for GCCAUCACAAUUCUAAUCCTT against V2r1 here?
A: inactive: 1.02

Q: With GGGAUCAGAGAUAUAGCCATT against V1ri1 as the sequence, how does the z-score read?
A: inactive: -1.46

Q: Which z-score does the source give for GGCGUGACUUCCACAAGAGTT against Fabp4 here?
A: inactive: 0.274

Q: For “GGCCUUCUUUGAUGUGAAGTT against B230113C15Rik”, which z-score is on record?
A: inactive: 1.88

Q: For CCACUUGUUGAUCAAGAGATT against Adamts15, which z-score is on record?
A: inactive: 0.323

Q: Which z-score does the source give for GGAAACCAUCAAAGUAUGGTT against Ndufa6 here?
A: inactive: 0.238

Q: Which z-score does the source give for GGAGCUAACAAAAUAGGCUTT against Epb4.1l4b here?
A: inactive: 0.242

Q: With CGUGUGAAGAAAAUUGAUGTT against Mmp27 as the sequence, how does the z-score read?
A: inactive: 0.81

Q: For “GCAUUCGGUACUUAUUUGATT against C730031G17”, which z-score is on record?
A: inactive: -0.36

Q: Which z-score does the source give for “GGGAUUUCAUCUUUGAAAGTT against 1500040F11Rik” here?
A: inactive: 0.147

Q: For GGUGGUGAAGCUAAAGCAGTT against Prkaca, which z-score is on record?
A: inactive: 1.88

Q: For “GGAGCUGAACUAUUGUCAUTT against A630007B06Rik”, which z-score is on record?
A: inactive: 0.039

Q: With GGCCAAGUGCACCAUCCUATT against Gng13 as the sequence, how does the z-score read?
A: inactive: 0.793

Q: Which z-score does the source give for “CCUGUUGGACCUUAUUCCCTT against 1100001H23Rik” here?
A: inactive: 0.623

Q: For GGAAACUUUUGGGAGAAAUTT against Itpr2, which z-score is on record?
A: inactive: 1.5

Q: For GGAAGGUGUCUGUAAUAUATT against Slamf9, which z-score is on record?
A: inactive: -0.311

Q: Which z-score does the source give for GCGACAUCUACAAGUUCAUTT against Foxb2 here?
A: inactive: -0.362

Q: For CCCAUUUAGAAUUACGGCATT against Ppp2r2d, which z-score is on record?
A: inactive: 0.582

Q: Which z-score does the source give for “CCUAAGUAGUGUUUGAACUTT against B530045E10Rik” here?
A: inactive: -0.488

Q: Which z-score does the source give for GGUACCAACAAGAUGACUGTT against Iigp2 here?
A: inactive: 1.68

Q: With CGUAGAAGUUGAUGAGUCATT against Numb as the sequence, how does the z-score read?
A: inactive: -0.766

Q: For GGAUAAUCAGGAAGGUACUTT against Blmh, which z-score is on record?
A: inactive: -0.285

Q: For “GGACUGUCAUCUUCCUCAGTT against 4933401N24Rik”, which z-score is on record?
A: inactive: -1.72

Q: With GGAGCUGGCUGACUUCAUUTT against Fcho1 as the sequence, how does the z-score read?
A: inactive: -2.19

Q: Which z-score does the source give for “GGAGCCUCAUGAAAAAUGCTT against 9930014A18Rik” here?
A: inactive: -0.404

Q: For GCUGAUGGCAGAGGAAACATT against Olfr213, which z-score is on record?
A: inactive: -0.801

Q: For GGCGGAUAUCAAUACGAAATT against Rpl14, which z-score is on record?
A: inactive: -2.98

Q: With GGUUUUCCUAAAGUCAACATT against Bfar as the sequence, how does the z-score read?
A: inactive: 0.203

Q: Which z-score does the source give for CCAAUGCAAGUGCUACAGUTT against Zfp277 here?
A: inactive: 0.967

Q: With GCCUCCAACUGAACAAAUUTT against Tnfrsf14 as the sequence, how does the z-score read?
A: inactive: -2.44

Q: With CCCUAAAGCUUUAUAGUGCTT against Dub1a as the sequence, how does the z-score read?
A: inactive: 0.912

Q: For “GCCAUCAACGUAUCUUACUTT against 4930548H24Rik”, which z-score is on record?
A: inactive: 2.17

Q: For GGAGAUUCUGUAGGUUAUUTT against Lrat, which z-score is on record?
A: inactive: -0.278

Q: For “CCGAAAUAAAGGAGUUGAUTT against 1110059F07Rik”, which z-score is on record?
A: inactive: 0.382

Q: Which z-score does the source give for GGCAAAAUUAGCAUCAAAGTT against Slc22a3 here?
A: inactive: 0.606

Q: With GGAUUCUAGGGUUGACAUUTT against Kb36 as the sequence, how does the z-score read?
A: inactive: -0.537

Q: With GGUGGUAAUAGACAAACACTT against Dullard as the sequence, how does the z-score read?
A: inactive: 2.64

Q: With CCACUUGGAUGCAGUGAAGTT against Ehmt1 as the sequence, how does the z-score read?
A: inactive: -1.5

Q: With GGUCAAGAAAAAGUUUCAGTT against Spag7 as the sequence, how does the z-score read?
A: inactive: 1.63

Q: With GCGCCUUAACCAAGAAGUUTT against BC038311 as the sequence, how does the z-score read?
A: inactive: -1

Q: With GUCCCAAUGCUCAAAAAAATT against Sf4 as the sequence, how does the z-score read?
A: inactive: 0.467

Q: Which z-score does the source give for GGAAGAUGAAGAGUCAGAGTT against BC035291 here?
A: inactive: 1.38

Q: For “GGCAAUCUUAUACUUAUGCTT against 1810037K07Rik”, which z-score is on record?
A: inactive: -0.95

Q: For GGGUGUGUUCUUAUCUCAUTT against Olfr921, which z-score is on record?
A: inactive: 0.0249

Q: With GGUAUAUGGUGGGAACUUUTT against Bnipl as the sequence, how does the z-score read?
A: inactive: 0.451

Q: For “GGAGAUGCUCGCUUUUUACTT against D730039F16Rik”, which z-score is on record?
A: inactive: 0.481

Q: With GAGAGUCGCGCGCUUUUAATT against Nxph4 as the sequence, how does the z-score read?
A: inactive: -0.537

Q: With CCUACACCUUCAGUUUGAUTT against MGC118154 as the sequence, how does the z-score read?
A: inactive: 0.0942

Q: Which z-score does the source give for GCAAUAAAGAGUUCUGGCUTT against Cklfsf2a here?
A: inactive: -0.0464

Q: With “GGCCUUAAGGUCCAUUAUCTT against 5730403M16Rik” as the sequence, how does the z-score read?
A: inactive: 1.57

Q: For “GGAUCAAAUGAAGAGGGAATT against C230094B15Rik”, which z-score is on record?
A: inactive: -0.666

Q: For GGAACCCUAUAUCUAGCAATT against Olfr114, which z-score is on record?
A: inactive: 0.483

Q: With GCCUAUCUAAUAUACAACGTT against Dnase2b as the sequence, how does the z-score read?
A: inactive: 0.435

Q: Which z-score does the source give for “GCUGAACGAGCAAUUGAGATT against 4932702K14Rik” here?
A: inactive: 1.73

Q: For GGAAAACGGACUAUUGUCCTT against Phf13, which z-score is on record?
A: inactive: 0.975

Q: Which z-score does the source give for CCUUUCCAAACACCUAUAATT against Sox6 here?
A: inactive: 0.421

Q: With GGAUUUACAUCCAUUGUUGTT against Otoa as the sequence, how does the z-score read?
A: inactive: 0.958

Q: With GCUCCAUGAAACCCACUCUTT against BC065120 as the sequence, how does the z-score read?
A: inactive: -1.77

Q: Which z-score does the source give for GCGCACACCCUACUUGAUUTT against Pcdh20 here?
A: inactive: -0.363

Q: For “CGCAUGAUGUGGGUUCUGUTT against 5730578N08Rik”, which z-score is on record?
A: inactive: 0.00907

Q: For GGCAGGUAAUUUUGAAUGUTT against Lemd2, which z-score is on record?
A: inactive: -0.291

Q: Which z-score does the source give for GCGAGCUGAACAAAUGGUCTT against Cyp24a1 here?
A: inactive: 0.919

Q: Which z-score does the source give for CGGGCAUUUACGAAUCAAGTT against Lmln here?
A: inactive: 1.5

Q: For GGUAAACUACGAAGAGUUUTT against Calm2, which z-score is on record?
A: inactive: 1.79

Q: With GGGAGUCUGUAGAAGGUUCTT against BC034054 as the sequence, how does the z-score read?
A: inactive: -0.611

Q: For GGUCAAUGAACCAUCCCACTT against Padi6, which z-score is on record?
A: inactive: 1.58

Q: For “GGUUGAUCUAAUGAUUGUGTT against 2810027O19Rik”, which z-score is on record?
A: inactive: -1.42

Q: With CCUCUGUCUAAGAUCAGUUTT against Trpm2 as the sequence, how does the z-score read?
A: inactive: -1.59

Q: For GGAAGACUUGUUCAACUGGTT against Grwd1, which z-score is on record?
A: inactive: 0.0881

Q: Which z-score does the source give for GGAAAUGUUAAGUGCCUUGTT against Mrpl53 here?
A: inactive: -1.77

Q: With CGAUGAAGUAUCAAUUAGATT against Usp1 as the sequence, how does the z-score read?
A: inactive: 0.891

Q: For GGGAAAGUUGGAGAGUACGTT against Hoxa1, which z-score is on record?
A: inactive: 0.592

Q: For GCCGCUAACUAAAGUCAAATT against Aloxe3, which z-score is on record?
A: inactive: 1.08

Q: With GAACGUGCAGCUGACAGAGTT against Ppp1ca as the sequence, how does the z-score read?
A: inactive: 1.29

Q: Which z-score does the source give for CCUCAGGUAUCCCGCUUUATT against Stk24 here?
A: inactive: 2.1

Q: For GUGAAAAAAUACAUGACCCTT against V1rc32, which z-score is on record?
A: inactive: 0.792

Q: Which z-score does the source give for GGGCCAAGCAAUUUGGUAGTT against S100a14 here?
A: inactive: -0.843

Q: With “GCAGGGCCUCUGUUUUUUATT against 1190005I06Rik” as the sequence, how does the z-score read?
A: inactive: -0.744

Q: For GGUUCGAUGUCCAGUCACUTT against Ppp2ca, which z-score is on record?
A: inactive: -2.1

Q: With “GGGAGGCAUAGUCAAAUUGTT against 4931419P11Rik” as the sequence, how does the z-score read?
A: inactive: 1.33

Q: Which z-score does the source give for CCGUUUCAGUCAAAUCCAUTT against Arid4b here?
A: inactive: -0.886

Q: Which z-score does the source give for GGGUUUUCCAUGAUCUAUUTT against Nup188 here?
A: inactive: -0.761

Q: With “CGUGUUUAGGAAAAAUUGUTT against 2510039O18Rik” as the sequence, how does the z-score read?
A: inactive: 1.32

Q: For GGGAAAUGCUUCUAAAAAUTT against Pcdhb11, which z-score is on record?
A: inactive: 0.548

Q: Which z-score does the source give for GGACCAAACCUAUCAAAAATT against BC020184 here?
A: inactive: -0.0206

Q: For GGCCAUAACGAAGGAUGAATT against Cdv3, which z-score is on record?
A: inactive: -1.04

Q: Which z-score does the source give for CCAGCAAAAAUCGAUACUUTT against Plcg2 here?
A: inactive: -0.123

Q: Which z-score does the source give for GGCUCCACCGACUUUGUCUTT against LOC226169 here?
A: inactive: 0.446

Q: For GCUUUUUCUGGAAACAGCUTT against Gpr89, which z-score is on record?
A: inactive: -0.438

Q: With “GGCAUAUACACAAUUGAUATT against 2810429K17Rik” as the sequence, how does the z-score read?
A: inactive: 0.759

Q: With CCAAGCAUUCGAGUAUGUUTT against Ctsj as the sequence, how does the z-score read?
A: inactive: -0.942

Q: Which z-score does the source give for GCACUCUUUUGUGCCACUUTT against Adora3 here?
A: inactive: 0.447

Q: For CGUGAAUGACGACCCUCUATT against Zfp456, which z-score is on record?
A: inactive: -1.68

Q: Which z-score does the source give for CCUUGGAAUGCAUAGCCAATT against Sdk1 here?
A: inactive: -0.0704

Q: For GGACUCCAACCACACUAUCTT against Rab4b, which z-score is on record?
A: inactive: -0.047

Q: With “GGGAAGAAAUCCAAGAAGATT against 1600025D17Rik” as the sequence, how does the z-score read?
A: inactive: -0.109

Q: Which z-score does the source give for GGGAGAUGUCUUACACAUGTT against Fkbp2 here?
A: inactive: -0.967

Q: With GCCUGCCUUGGAAAAGUCATT against Akr1c13 as the sequence, how does the z-score read?
A: inactive: -1.64

Q: With GGAACAACUCUUAUGUAUUTT against B3gat1 as the sequence, how does the z-score read?
A: inactive: 0.223

Q: With GGCCACUGAUCAACUAAAGTT against Zfp110 as the sequence, how does the z-score read?
A: inactive: 0.516
